Taken from: PubChem BioAssay AID504774 (Drosophila RNAi Screening Center, 2011)
Aim: 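Knock-downs that shift viability of MMS-exposed cells relative to untreated ones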 (primary screen). System: Drosophila Kc167 cells. Reagents: long dsRNA against Drosophila genes, about 0.25 µg dsRNA per well. Timing: about 6 days: 3 days knock-down, then 3 days with or without MMS. Treatment: methyl methanesulphonate 0.004% (w/v) for 3 days after knock-down. Measured: 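Viability in wells given MMS, read as ATP luminescence, normalised by quantiles plate by plate and averaged across replicates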. Reading the numbers: mean viability with MMS and viability with MMS: higher = more surviving cells after MMS.
In all, the deposit lists about 23,000 reagents; this is an unselected part of those that have a named target and a result. 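Values are quantile-normalised luminescence on an arbitrary scale; higher means more cells surviving MMS.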 A plus sign joins genes that one reagent is predicted to hit. Further read-outs or replicates are left out here.

{"target gene": "nito", "amplicon": "DRSC05943", "mean viability with MMS": 3.47e6, "viability with MMS, replicate 1": 3.87e6}
{"target gene": "ECSIT", "amplicon": "DRSC12348", "mean viability with MMS": 3.58e6, "viability with MMS, replicate 1": 4.06e6}
{"target gene": "Pex11c", "amplicon": "DRSC14677", "mean viability with MMS": 3.62e6, "viability with MMS, replicate 1": 4.15e6}
{"target gene": "CG33922", "amplicon": "DRSC00050", "mean viability with MMS": 3.64e6, "viability with MMS, replicate 1": 4.02e6}
{"target gene": "Vang", "amplicon": "DRSC07570", "mean viability with MMS": 3.67e6, "viability with MMS, replicate 1": 4.12e6}
{"target gene": "CG14983", "amplicon": "DRSC08441", "mean viability with MMS": 3.65e6, "viability with MMS, replicate 1": 4.12e6}
{"target gene": "CG3902", "amplicon": "DRSC10387", "mean viability with MMS": 3.35e6, "viability with MMS, replicate 1": 3.74e6}
{"target gene": "CG33124", "amplicon": "DRSC00298", "mean viability with MMS": 3.51e6, "viability with MMS, replicate 1": 3.95e6}
{"target gene": "Dad", "amplicon": "DRSC16642", "mean viability with MMS": 3.77e6, "viability with MMS, replicate 1": 4.18e6}
{"target gene": "CNT1 + CG13742", "amplicon": "DRSC06413", "mean viability with MMS": 3.67e6, "viability with MMS, replicate 1": 4.14e6}
{"target gene": "CG10055", "amplicon": "DRSC12503", "mean viability with MMS": 3.47e6, "viability with MMS, replicate 1": 3.99e6}
{"target gene": "Srrm1", "amplicon": "DRSC09835", "mean viability with MMS": 3.50e6, "viability with MMS, replicate 1": 3.91e6}
{"target gene": "boi", "amplicon": "DRSC18425", "mean viability with MMS": 3.60e6, "viability with MMS, replicate 1": 4.19e6}
{"target gene": "boi", "amplicon": "DRSC18598", "mean viability with MMS": 3.48e6, "viability with MMS, replicate 1": 4.01e6}
{"target gene": "Eig71Eb", "amplicon": "DRSC11149", "mean viability with MMS": 3.75e6, "viability with MMS, replicate 1": 4.22e6}
{"target gene": "CaMKI", "amplicon": "DRSC17162", "mean viability with MMS": 3.79e6, "viability with MMS, replicate 1": 4.15e6}
{"target gene": "bdg", "amplicon": "DRSC07136", "mean viability with MMS": 3.71e6, "viability with MMS, replicate 1": 4.22e6}
{"target gene": "CG44422", "amplicon": "DRSC18885", "mean viability with MMS": 3.20e6, "viability with MMS, replicate 1": 3.63e6}
{"target gene": "CG44422", "amplicon": "DRSC19380", "mean viability with MMS": 3.38e6, "viability with MMS, replicate 1": 3.85e6}
{"target gene": "CG44422", "amplicon": "DRSC19480", "mean viability with MMS": 3.37e6, "viability with MMS, replicate 1": 3.79e6}
{"target gene": "CG44422", "amplicon": "DRSC23284", "mean viability with MMS": 3.57e6, "viability with MMS, replicate 1": 4.00e6}
{"target gene": "Atf6", "amplicon": "DRSC04743", "mean viability with MMS": 3.54e6, "viability with MMS, replicate 1": 3.99e6}
{"target gene": "Atf6", "amplicon": "DRSC04889", "mean viability with MMS": 3.71e6, "viability with MMS, replicate 1": 4.21e6}
{"target gene": "CG15611", "amplicon": "DRSC06563", "mean viability with MMS": 3.54e6, "viability with MMS, replicate 1": 4.04e6}
{"target gene": "CG15611", "amplicon": "DRSC06564", "mean viability with MMS": 3.57e6, "viability with MMS, replicate 1": 3.98e6}
{"target gene": "CG7029", "amplicon": "DRSC16177", "mean viability with MMS": 3.37e6, "viability with MMS, replicate 1": 3.78e6}
{"target gene": "Srp9", "amplicon": "DRSC10973", "mean viability with MMS": 3.52e6, "viability with MMS, replicate 1": 4.03e6}
{"target gene": "CG15870", "amplicon": "DRSC06588", "mean viability with MMS": 3.53e6, "viability with MMS, replicate 1": 3.92e6}
{"target gene": "egr", "amplicon": "DRSC06233", "mean viability with MMS": 3.65e6, "viability with MMS, replicate 1": 4.09e6}
{"target gene": "LSm3", "amplicon": "DRSC15920", "mean viability with MMS": 3.67e6, "viability with MMS, replicate 1": 4.13e6}
{"target gene": "CG6398", "amplicon": "DRSC19992", "mean viability with MMS": 3.70e6, "viability with MMS, replicate 1": 4.23e6}
{"target gene": "Pex12", "amplicon": "DRSC00622", "mean viability with MMS": 3.37e6, "viability with MMS, replicate 1": 3.77e6}
{"target gene": "Spt", "amplicon": "DRSC07123", "mean viability with MMS": 3.53e6, "viability with MMS, replicate 1": 4.08e6}
{"target gene": "Pak3", "amplicon": "DRSC15017", "mean viability with MMS": 3.59e6, "viability with MMS, replicate 1": 4.05e6}
{"target gene": "Gr93b", "amplicon": "DRSC22063", "mean viability with MMS": 3.64e6, "viability with MMS, replicate 1": 4.07e6}

4 entries already listed, arranged by “mean viability with MMS”, lowest first.
{"target gene": "CG44422", "amplicon": "DRSC18885", "mean viability with MMS": 3.20e6, "viability with MMS, replicate 1": 3.63e6}
{"target gene": "CG44422", "amplicon": "DRSC19480", "mean viability with MMS": 3.37e6, "viability with MMS, replicate 1": 3.79e6}
{"target gene": "CG44422", "amplicon": "DRSC19380", "mean viability with MMS": 3.38e6, "viability with MMS, replicate 1": 3.85e6}
{"target gene": "CG44422", "amplicon": "DRSC23284", "mean viability with MMS": 3.57e6, "viability with MMS, replicate 1": 4.00e6}
